Source: the odorant receptor screen of Mainland et al. (2015)
Values joined by “and” are separate entries in the source; they are usually repeats but may differ in a detail not shown here. Identical values can stand only once. The list shows a part of the results. Single wells; the ratio to wells without odorant was worked out here, and repeats agree poorly.

Legend:
Assay in all cases: odorant receptor activation (CRE luciferase / Renilla) (fold of no-odor wells); higher = more activation
Conditions in all cases: 100 µM
OR56B4 P277S clone 1224 = test system: OR56B4 P277S clone 1224
OR5A1 I52V clone 1131 = test system: OR5A1 I52V clone 1131
OR5A1 clone 1130 = test system: OR5A1 clone 1130
OR5A1 clone 1507 = test system: OR5A1 clone 1507
OR5A2 clone 1132 = test system: OR5A2 clone 1132
OR5AC2 M200I clone 1490 = test system: OR5AC2 M200I clone 1490
OR5AK2 M92I clone 1335 = test system: OR5AK2 M92I clone 1335
OR5AK2 clone 1438 = test system: OR5AK2 clone 1438
OR5AK3 clone 1336 = test system: OR5AK3 clone 1336
OR5AL1 clone 1362 = test system: OR5AL1 clone 1362
OR5AN1 clone 1245 = test system: OR5AN1 clone 1245
OR5AP2 clone 1209 = test system: OR5AP2 clone 1209
OR5AR1 clone 1207 = test system: OR5AR1 clone 1207
OR5AS1 clone 1135 = test system: OR5AS1 clone 1135
[1] = test system: OR5AU1 L66F/I248V clone 1421
OR5AU1 clone 1344 = test system: OR5AU1 clone 1344
OR5B17 clone 1220 = test system: OR5B17 clone 1220
OR5B2 M200T clone 1246 = test system: OR5B2 M200T clone 1246
OR5B21 I279F clone 1482 = test system: OR5B21 I279F clone 1482
OR5B3 clone 1138 = test system: OR5B3 clone 1138

Row | Compound | odorant receptor activation (OR56B4 P277S clone 1224) | odorant receptor activation (OR5A1 I52V clone 1131) | odorant receptor activation (OR5A1 clone 1130) | odorant receptor activation (OR5A1 clone 1507) | odorant receptor activation (OR5A2 clone 1132) | odorant receptor activation (OR5AC2 M200I clone 1490) | odorant receptor activation (OR5AK2 M92I clone 1335) | odorant receptor activation (OR5AK2 clone 1438) | odorant receptor activation (OR5AK3 clone 1336) | odorant receptor activation (OR5AL1 clone 1362) | odorant receptor activation (OR5AN1 clone 1245) | odorant receptor activation (OR5AP2 clone 1209) | odorant receptor activation (OR5AR1 clone 1207) | odorant receptor activation (OR5AS1 clone 1135) | odorant receptor activation [1] | odorant receptor activation (OR5AU1 clone 1344) | odorant receptor activation (OR5B17 clone 1220) | odorant receptor activation (OR5B2 M200T clone 1246) | odorant receptor activation (OR5B21 I279F clone 1482) | odorant receptor activation (OR5B3 clone 1138)
1 | CCCCOC(C)=O [butyl acetate] | 1.24 | 1 | 0.848 | 1.01 | 0.996 | 1.05 | 0.63 | 0.195 | 0.94 | 0.196 | 0.714 | 1.02 | 1.02 | 1.24 | 0.429 | 0.689 | 0.978 | 1.08 | 0.855 | 1.11
2 | CS [methanethiol] | 1.01 | 0.811 | 0.89 | 1.06 | 0.858 | 0.903 | 0.966 | 1.09 | 0.866 | 1.28 | 0.78 | 0.996 | 0.977 | 0.942 | 0.929 | 0.993 | 0.86 | 0.858 | 0.998 | 0.817
3 | CCC(C)=O [2-butanone] | 1.05 | 0.757 | 1.38 | 1.04 | 1.23 | 1.06 | 0.869 | 1.05 | 0.976 | 1.42 | 1.26 | 0.814 | 0.867 | 1.25 | 1.27 | 0.913 | 1.37 | 2.04 | 0.888 | 1.26
4 | CCOc1cc(C=O)ccc1O [ethyl vanillin] | 1.5 and 1.24 | 1.72 and 1.26 | 1.29 and 1.14 | 1.31 and 2.72 and 1.2 | 1.92 and 1.18 | 1.68 and 1.95 and 1.03 | 0.519 and 1.15 | 0.985 and 1.44 | 0.952 and 0.96 | 1.03 and 1.28 | 1.02 and 1.04 | 1.19 and 1.32 | 1.39 and 1.33 | 2.29 and 1.24 | 0.924 and 1.46 | 0.698 and 0.892 | 1.35 and 0.977 | 0.953 and 1.06 | 1.16 and 2.26 and 1.18 | 1.95 and 1.2
